# Laboratory results reported in the supplement of paper PMC6411743.
# ± gives the standard deviation of the averaged measurements. This is a selection; strong and weak results do not stand in their true shares.
# Tests used:
# Assay in all cases: NP40-soluble protein abundance relative to vehicle (solubility fold change) (ratio); higher = more soluble protein in presence of AMP-PNP
# [1] = biological target: T1, Q5SZG2 and related entries (UniProt Q8TAK5)
# T1 sequence (whole entry): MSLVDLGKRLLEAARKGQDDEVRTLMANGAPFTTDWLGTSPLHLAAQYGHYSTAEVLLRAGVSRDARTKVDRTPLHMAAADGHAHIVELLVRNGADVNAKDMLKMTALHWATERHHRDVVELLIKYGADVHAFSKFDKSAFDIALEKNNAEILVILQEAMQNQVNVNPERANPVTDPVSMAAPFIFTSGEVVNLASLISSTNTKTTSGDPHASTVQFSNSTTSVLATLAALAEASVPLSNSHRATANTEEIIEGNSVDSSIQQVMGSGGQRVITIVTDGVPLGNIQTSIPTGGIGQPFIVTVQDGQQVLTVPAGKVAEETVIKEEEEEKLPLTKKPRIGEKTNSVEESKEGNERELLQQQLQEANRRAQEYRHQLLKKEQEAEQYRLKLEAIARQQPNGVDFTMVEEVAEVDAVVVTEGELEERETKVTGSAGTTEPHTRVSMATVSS
# Summary of the method: (§1)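 Jurkat crude lysate prepared with a Dounce homogeniser was treated at eight concentrations spanning 0.1 to 10 mM, 10 min at room temperature then 3 min at 37 °C. Solubilisation with 0.8% NP40 and benzonase and ultracentrifugation preceded TMT labelling of the supernatant for LC-MS/MS. Fold change against the detergent-processed vehicle was determined per replicate from vsn-normalised intensities, across three independent experiments.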
# [2] = biological target: T2, RABL3 (UniProt Q5HYI8)
# T2 sequence (whole entry): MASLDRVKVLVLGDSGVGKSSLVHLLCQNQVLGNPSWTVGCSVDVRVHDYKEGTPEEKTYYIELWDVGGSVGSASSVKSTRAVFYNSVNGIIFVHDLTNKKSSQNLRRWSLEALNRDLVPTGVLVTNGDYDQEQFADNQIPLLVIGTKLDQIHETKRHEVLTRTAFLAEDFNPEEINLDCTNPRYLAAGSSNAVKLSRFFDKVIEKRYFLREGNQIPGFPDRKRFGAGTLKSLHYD
# Summary of the method: as §1
# [3] = biological target: T3, RCN1 (UniProt Q15293)
# T3 sequence (whole entry): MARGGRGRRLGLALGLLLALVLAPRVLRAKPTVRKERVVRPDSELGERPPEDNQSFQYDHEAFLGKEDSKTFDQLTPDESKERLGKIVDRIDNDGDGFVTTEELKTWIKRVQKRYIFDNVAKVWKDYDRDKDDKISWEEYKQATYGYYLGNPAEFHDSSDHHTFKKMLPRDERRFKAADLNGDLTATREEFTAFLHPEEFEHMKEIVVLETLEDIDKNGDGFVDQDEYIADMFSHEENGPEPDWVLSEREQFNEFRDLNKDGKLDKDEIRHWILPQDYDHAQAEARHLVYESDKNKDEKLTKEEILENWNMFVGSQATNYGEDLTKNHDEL
# Summary of the method: as §1
# [4] = biological target: T4, TTF1 (UniProt Q15361)
# T4 sequence (whole entry): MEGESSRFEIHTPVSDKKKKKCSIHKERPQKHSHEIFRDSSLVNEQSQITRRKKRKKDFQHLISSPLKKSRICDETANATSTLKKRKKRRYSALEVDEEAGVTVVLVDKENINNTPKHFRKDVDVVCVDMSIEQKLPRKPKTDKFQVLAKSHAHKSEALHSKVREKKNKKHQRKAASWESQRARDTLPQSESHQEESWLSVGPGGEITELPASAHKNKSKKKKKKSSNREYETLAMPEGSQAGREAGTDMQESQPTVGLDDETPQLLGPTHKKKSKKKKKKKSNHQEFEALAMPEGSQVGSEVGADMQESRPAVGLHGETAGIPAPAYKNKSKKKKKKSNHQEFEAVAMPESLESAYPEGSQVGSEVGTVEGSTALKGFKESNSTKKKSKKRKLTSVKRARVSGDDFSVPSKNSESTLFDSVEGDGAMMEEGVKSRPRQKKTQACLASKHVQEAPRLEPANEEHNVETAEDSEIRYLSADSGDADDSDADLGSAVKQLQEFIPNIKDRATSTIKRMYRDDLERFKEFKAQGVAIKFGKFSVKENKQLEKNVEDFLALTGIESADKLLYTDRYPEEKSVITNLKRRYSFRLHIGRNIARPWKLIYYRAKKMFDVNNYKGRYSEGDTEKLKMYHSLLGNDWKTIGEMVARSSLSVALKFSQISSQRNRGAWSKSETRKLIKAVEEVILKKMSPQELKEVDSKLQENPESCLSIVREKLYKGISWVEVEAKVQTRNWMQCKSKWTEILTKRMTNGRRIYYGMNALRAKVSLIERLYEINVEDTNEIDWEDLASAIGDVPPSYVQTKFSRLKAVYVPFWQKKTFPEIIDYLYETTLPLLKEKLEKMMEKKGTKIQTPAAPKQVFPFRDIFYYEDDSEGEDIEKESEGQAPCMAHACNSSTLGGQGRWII
# Summary of the method: as §1
# [5] = biological target: T5, UAP1L1 (UniProt Q3KQV9)
# T5 sequence (whole entry): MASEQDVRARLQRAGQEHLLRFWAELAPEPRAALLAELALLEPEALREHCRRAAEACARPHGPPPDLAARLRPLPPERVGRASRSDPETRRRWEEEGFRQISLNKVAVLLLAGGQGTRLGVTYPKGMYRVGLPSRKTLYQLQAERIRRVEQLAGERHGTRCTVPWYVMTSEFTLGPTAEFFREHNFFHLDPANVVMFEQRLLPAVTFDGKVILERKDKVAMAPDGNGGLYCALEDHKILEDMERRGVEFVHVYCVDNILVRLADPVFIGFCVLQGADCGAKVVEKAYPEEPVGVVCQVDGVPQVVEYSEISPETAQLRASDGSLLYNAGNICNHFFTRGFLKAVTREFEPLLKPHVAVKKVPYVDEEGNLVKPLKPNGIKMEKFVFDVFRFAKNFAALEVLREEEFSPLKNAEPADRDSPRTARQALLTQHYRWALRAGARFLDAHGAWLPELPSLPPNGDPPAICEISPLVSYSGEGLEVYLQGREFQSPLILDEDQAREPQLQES
# Summary of the method: as §1
# [6] = biological target: T6, UniProt Q15398-3|Q15398
# T6 sequence (whole entry): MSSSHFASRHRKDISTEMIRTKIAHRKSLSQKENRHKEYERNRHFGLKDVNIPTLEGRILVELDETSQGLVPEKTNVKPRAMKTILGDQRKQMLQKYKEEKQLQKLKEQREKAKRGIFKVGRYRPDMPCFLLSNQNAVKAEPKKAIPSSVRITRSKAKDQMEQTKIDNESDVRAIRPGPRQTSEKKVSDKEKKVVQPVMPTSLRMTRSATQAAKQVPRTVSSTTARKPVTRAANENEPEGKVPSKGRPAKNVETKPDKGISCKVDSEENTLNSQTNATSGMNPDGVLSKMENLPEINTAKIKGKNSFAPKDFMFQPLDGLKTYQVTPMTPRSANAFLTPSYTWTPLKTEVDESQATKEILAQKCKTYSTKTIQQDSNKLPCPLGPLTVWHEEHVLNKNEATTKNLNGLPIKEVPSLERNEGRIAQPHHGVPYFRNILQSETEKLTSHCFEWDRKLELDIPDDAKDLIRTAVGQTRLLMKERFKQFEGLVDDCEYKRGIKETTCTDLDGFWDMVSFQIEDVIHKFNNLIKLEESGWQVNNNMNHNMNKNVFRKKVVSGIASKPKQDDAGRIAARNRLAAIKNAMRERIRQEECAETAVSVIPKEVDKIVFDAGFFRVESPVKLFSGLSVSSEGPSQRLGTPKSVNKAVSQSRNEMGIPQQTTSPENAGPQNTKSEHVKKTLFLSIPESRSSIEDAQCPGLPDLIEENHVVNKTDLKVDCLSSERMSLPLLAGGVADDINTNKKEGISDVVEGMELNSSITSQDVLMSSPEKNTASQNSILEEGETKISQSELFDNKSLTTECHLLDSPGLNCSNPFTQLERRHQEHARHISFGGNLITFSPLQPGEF
# Summary of the method: as §1
# [7] = biological target: T7, UniProt Q15723 and related entries
# T7 sequence (whole entry): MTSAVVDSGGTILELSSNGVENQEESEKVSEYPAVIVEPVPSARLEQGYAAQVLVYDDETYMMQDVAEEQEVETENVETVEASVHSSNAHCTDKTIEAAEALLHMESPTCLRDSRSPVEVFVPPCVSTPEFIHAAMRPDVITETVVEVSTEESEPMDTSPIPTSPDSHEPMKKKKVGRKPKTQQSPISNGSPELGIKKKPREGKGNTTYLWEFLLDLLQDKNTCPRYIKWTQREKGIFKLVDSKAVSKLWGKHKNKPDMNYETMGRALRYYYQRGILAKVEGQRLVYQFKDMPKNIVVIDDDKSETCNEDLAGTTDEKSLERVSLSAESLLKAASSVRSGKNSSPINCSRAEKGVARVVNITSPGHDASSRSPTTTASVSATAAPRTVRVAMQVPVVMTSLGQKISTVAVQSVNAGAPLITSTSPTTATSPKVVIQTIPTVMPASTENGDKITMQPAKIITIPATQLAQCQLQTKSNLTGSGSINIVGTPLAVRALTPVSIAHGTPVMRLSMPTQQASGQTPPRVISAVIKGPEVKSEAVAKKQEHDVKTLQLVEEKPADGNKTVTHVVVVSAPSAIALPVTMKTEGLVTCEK
# Summary of the method: as §1
# [8] = biological target: T8, UniProt Q15782-5|H0YE91 and related entries
# T8 sequence (whole entry): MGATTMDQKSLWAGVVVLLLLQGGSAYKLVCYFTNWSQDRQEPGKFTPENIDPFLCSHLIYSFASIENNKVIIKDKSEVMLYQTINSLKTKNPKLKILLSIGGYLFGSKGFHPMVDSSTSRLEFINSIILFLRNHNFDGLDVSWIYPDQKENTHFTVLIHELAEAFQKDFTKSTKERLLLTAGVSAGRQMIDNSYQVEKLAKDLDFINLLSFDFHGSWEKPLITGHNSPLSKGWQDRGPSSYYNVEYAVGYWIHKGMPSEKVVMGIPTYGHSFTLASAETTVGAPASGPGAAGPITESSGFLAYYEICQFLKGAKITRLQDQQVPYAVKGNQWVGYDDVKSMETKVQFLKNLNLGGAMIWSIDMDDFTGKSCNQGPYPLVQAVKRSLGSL
# Summary of the method: as §1
smiles,measurement,setting,value
Nc1ncnc2c1ncn2[C@@H]1O[C@H](COP(=O)(O)OP(=O)(O)NP(=O)(O)O)[C@@H](O)[C@H]1O [adenylyl imidodiphosphate],NP40-soluble protein abundance,[1]; concentration: 1mM,0.991 ± 0.029
same,NP40-soluble protein abundance,[1]; concentration: 2mM,1.01 ± 0.021
same,NP40-soluble protein abundance,[1]; concentration: 4mM,0.97 ± 0.037
same,NP40-soluble protein abundance,[1]; concentration: 6mM,0.986 ± 0.034
same,NP40-soluble protein abundance,[1]; concentration: 8mM,0.973 ± 0.035
same,NP40-soluble protein abundance,[1]; concentration: 10mM,0.973 ± 0.042
same,NP40-soluble protein abundance,[2]; concentration: 1mM,0.999 ± 0.025
same,NP40-soluble protein abundance,[2]; concentration: 2mM,1.02 ± 0.0055
same,NP40-soluble protein abundance,[2]; concentration: 4mM,1 ± 0.018
same,NP40-soluble protein abundance,[2]; concentration: 6mM,1.06 ± 0.023
same,NP40-soluble protein abundance,[2]; concentration: 8mM,1.06 ± 0.033
same,NP40-soluble protein abundance,[2]; concentration: 10mM,1.03 ± 0.018
same,NP40-soluble protein abundance,[3]; concentration: 1mM,0.991 ± 0.036
same,NP40-soluble protein abundance,[3]; concentration: 2mM,1.04 ± 0.042
same,NP40-soluble protein abundance,[3]; concentration: 4mM,0.975 ± 0.02
same,NP40-soluble protein abundance,[3]; concentration: 6mM,0.998 ± 0.049
same,NP40-soluble protein abundance,[3]; concentration: 8mM,0.996 ± 0.014
same,NP40-soluble protein abundance,[3]; concentration: 10mM,0.975 ± 0.04
same,NP40-soluble protein abundance,[4]; concentration: 1mM,0.967 ± 0.024
same,NP40-soluble protein abundance,[4]; concentration: 2mM,0.963 ± 0.024
same,NP40-soluble protein abundance,[4]; concentration: 4mM,0.957 ± 0.025
same,NP40-soluble protein abundance,[4]; concentration: 6mM,0.96 ± 0.046
same,NP40-soluble protein abundance,[4]; concentration: 8mM,0.912 ± 0.02
same,NP40-soluble protein abundance,[4]; concentration: 10mM,0.949 ± 0.045
same,NP40-soluble protein abundance,[5]; concentration: 1mM,1.02 ± 0.024
same,NP40-soluble protein abundance,[5]; concentration: 2mM,1.02 ± 0.043
same,NP40-soluble protein abundance,[5]; concentration: 4mM,0.993 ± 0.02
same,NP40-soluble protein abundance,[5]; concentration: 6mM,0.993 ± 0.021
same,NP40-soluble protein abundance,[5]; concentration: 8mM,0.989 ± 0.022
same,NP40-soluble protein abundance,[5]; concentration: 10mM,0.987 ± 0.015
same,NP40-soluble protein abundance,[6]; concentration: 1mM,1.03 ± 0.025
same,NP40-soluble protein abundance,[6]; concentration: 2mM,1.06 ± 0.041
same,NP40-soluble protein abundance,[6]; concentration: 4mM,1.02 ± 0.046
same,NP40-soluble protein abundance,[6]; concentration: 6mM,0.978 ± 0.025
same,NP40-soluble protein abundance,[6]; concentration: 8mM,0.949 ± 0.01
same,NP40-soluble protein abundance,[6]; concentration: 10mM,1 ± 0.039
same,NP40-soluble protein abundance,[7]; concentration: 1mM,1.02 ± 0.037
same,NP40-soluble protein abundance,[7]; concentration: 2mM,1.02 ± 0.04
same,NP40-soluble protein abundance,[7]; concentration: 4mM,1.04 ± 0.013
same,NP40-soluble protein abundance,[7]; concentration: 6mM,0.974 ± 0.023
same,NP40-soluble protein abundance,[7]; concentration: 8mM,0.989 ± 0.023
same,NP40-soluble protein abundance,[7]; concentration: 10mM,0.997 ± 0.063
same,NP40-soluble protein abundance,[8]; concentration: 1mM,0.868 ± 0.066
same,NP40-soluble protein abundance,[8]; concentration: 2mM,0.902 ± 0.029
same,NP40-soluble protein abundance,[8]; concentration: 4mM,0.937 ± 0.055
same,NP40-soluble protein abundance,[8]; concentration: 6mM,0.939 ± 0.066
same,NP40-soluble protein abundance,[8]; concentration: 8mM,0.93 ± 0.057
same,NP40-soluble protein abundance,[8]; concentration: 10mM,0.95 ± 0.092

# Reprinted from the listing (3 entries):
smiles,measurement,setting,value
Nc1ncnc2c1ncn2[C@@H]1O[C@H](COP(=O)(O)OP(=O)(O)NP(=O)(O)O)[C@@H](O)[C@H]1O [adenylyl imidodiphosphate],NP40-soluble protein abundance,[3]; concentration: 10mM,0.975 ± 0.04
same,NP40-soluble protein abundance,[4]; concentration: 1mM,0.967 ± 0.024
same,NP40-soluble protein abundance,[4]; concentration: 2mM,0.963 ± 0.024
